Article PMC5461112, “Structure analyses reveal a regulated oligomerization mechanism of the PlexinD1/GIPC/myosin VI complex” (eLife, 2017)
These are yes or no findings as the source states them, for the method shown. Binding can be weak; no strength is given.

Key:
[1] = molecular target: mouse GIPC3 GH1-PDZ-GH2 (residues 20-307) (mouse); test: pull-down; three proteins mixed: GST-HCBD, a GIPC and PlexinD1cyto (with JM), each 1 μM; glutathione beads; 10 mM Tris pH 8.0, 150 mM NaCl, 1 mM DTT; room temperature; Coomassie-stained SDS-PAGE; both purified
[2] = molecular target: myosin VI-HCBD(1052-1094), crystallised form (mouse); test: crystal structure; GIPC2-GH2(238-314) and myosin VI-HCBD(1052-1094) mixed equimolar, 15 mg/ml; 0.1 M MES pH 6.5, 10% (w/v) PEG20000; 20°C; both purified

B1: mouse PlexinD1 cytoplasmic region with the JM-segment (residues 1297-1925) (domain or fragment, UniProt Q3UH93 1297-1925)
chain: SRRAERYWQKTLLQMEEMESQIREEIRKGFAELQTDMTDLTKELNRSQGIPFLEYKHFVTRTFFPKCSSLYEERYVLPSKTLNSQGGSPPQETHPLLGEWNIPEHCRPSMEEGISLFSSLLNNKHFLIVFVHALEQQKDFAVRDRCSLASLLTIALHGKLEYYTSIMKELLVDLIDASAAKNPKLMLRRTESVVEKMLTNWMSICMYGCLRETVGEPFFLLLCAIKQQINKGSIDAITGKARYTLNEEWLLRENIEAKPRNLNVSFQGCGMDSLSVRAMDTDTLTQVKEKILEAFCKNVPYSQWPRAEDVDLEWFASSTQSYVLRDLDDTSVVEDGRKKLNTLAHYKIPEGASLAMSLTDKKDSTLGRVKDLDTEKYFHLVLPTDELVEPKKSHRQSHRKKVLPEIYLTRLLSTKGTLQKFLDDLFKAILSIREDKPPLAVKYFFDFLEEQAEKRGISDPDTLHIWKTNSLPLRFWVNILKNPQFVFDIEKTDHIDACLSVIAQAFIDACSISDLQLGKDSPTNKLLYAKEIPEYRKTVQRYYKQIQDMTPLSEQEMNAHLAEESRKYQNEFNTNVAMAEIYKYAKRYRPQIMAALEANPTARRTQLQHKFEQVVALMENNIYECYSEA
binding [1]: binds

B2: mouse GIPC2 GH2 domain (residues 238-314) (domain or fragment, UniProt Q9Z2H7 238-314)
chain: LPSEAKAKAIGKVDDLLELYMGIRDIDLATTMFEAGKDKSNPDEFAVALDETLGDFAFPDEFLFDVWGAISDMKQGR
binding [2]: binds
